Measurements reported in PubChem BioAssay AID1259308 (NCATS, 2017).
The whole screen tested about 59,000 reagents; shown is a random part of them. In the full data, about 1,510 (2.6%) were called active. 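Calls use total luciferase alone and ignore viability, so some active siRNAs may act by altering cell number.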 A number with no mark means an inactive call. Reagents against one gene are numbered here. Not all columns of the deposit are shown. Reagent sequences are not shown.

Test: 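Candidate targets for better recombinant protein yield in mammalian cells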 (primary screen)
Cells: human HEK293 embryonic kidney cells stably expressing firefly luciferase (HEK-CMV-Luc2-Hygro)
Reagent: single siRNA against human genes, 0.8 pmol siRNA per well
Time to read-out: 72 h
Detection: 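Reporter luminescence and viable-cell signal on separate replicate plates, given as percent of non-targeting control and median/MAD z-scores, plus per-cell luciferase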
Direction: total luciferase, z-score: higher = more reporter protein produced
Active means: 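Active when the median/MAD z-score for overall luciferase is greater than 3; a gene was taken forward for validation with new siRNAs if at least two of its three siRNAs passed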
Meaning of the calls: active = raised luciferase; inactive = no rise

total luciferase, z-score, by target gene and reagent
PRMT9: #1 -0.313; #2 -0.62; #3 0.0245
KCNK17: #1 -0.88; #2 1.43; #3 1.82
TMED1: #1 -0.809; #2 0.296; #3 0.193
LMOD1: #1 -0.235; #2 -1.62; #3 -1.73
CENPVL3: #1 0.35; #2 -0.0419; #3 1.07
KTN1: #1 0.0365; #2 0.0955; #3 -1.99
DTHD1: #1 0.71; #2 -2.59; #3 -2.84
EPSTI1: #1 -0.288; #2 -0.989; #3 0.372
NID2: #1 0.879; #2 5.4 (active); #3 0.335
LOC401957: #1 1.71; #2 -0.578; #3 0.709
MXD4: #1 1.43; #2 0.811; #3 0.554
DNAJA4: #1 -0.416; #2 3.15 (active); #3 -0.157
CLK4: #1 0.458; #2 0.292; #3 -0.682
APOL1: #1 0.188; #2 2.65; #3 -0.289
PRAME-AS: #1 -1.95; #2 0.109; #3 2.66
ZIM2: #1 0.216; #2 0.188; #3 -1.77
RCE1: #1 0.941; #2 -0.975; #3 0.699
RIMKLB: #1 2.37; #2 0.677; #3 0.619
ALG1L1P: #1 -0.625; #2 2.09; #3 0.0374
